## Assay results

By UniProt entry, the sequences of proteins in these tests, tags left out.
UniProt Q9HD36, whole entry, target on record: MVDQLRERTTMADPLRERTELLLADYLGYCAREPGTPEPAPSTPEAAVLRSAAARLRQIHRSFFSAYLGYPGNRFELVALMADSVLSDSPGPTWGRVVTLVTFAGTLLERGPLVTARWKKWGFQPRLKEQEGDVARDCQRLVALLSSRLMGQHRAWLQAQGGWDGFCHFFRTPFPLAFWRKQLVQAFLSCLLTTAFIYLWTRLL
UniProt P22736, whole entry partner: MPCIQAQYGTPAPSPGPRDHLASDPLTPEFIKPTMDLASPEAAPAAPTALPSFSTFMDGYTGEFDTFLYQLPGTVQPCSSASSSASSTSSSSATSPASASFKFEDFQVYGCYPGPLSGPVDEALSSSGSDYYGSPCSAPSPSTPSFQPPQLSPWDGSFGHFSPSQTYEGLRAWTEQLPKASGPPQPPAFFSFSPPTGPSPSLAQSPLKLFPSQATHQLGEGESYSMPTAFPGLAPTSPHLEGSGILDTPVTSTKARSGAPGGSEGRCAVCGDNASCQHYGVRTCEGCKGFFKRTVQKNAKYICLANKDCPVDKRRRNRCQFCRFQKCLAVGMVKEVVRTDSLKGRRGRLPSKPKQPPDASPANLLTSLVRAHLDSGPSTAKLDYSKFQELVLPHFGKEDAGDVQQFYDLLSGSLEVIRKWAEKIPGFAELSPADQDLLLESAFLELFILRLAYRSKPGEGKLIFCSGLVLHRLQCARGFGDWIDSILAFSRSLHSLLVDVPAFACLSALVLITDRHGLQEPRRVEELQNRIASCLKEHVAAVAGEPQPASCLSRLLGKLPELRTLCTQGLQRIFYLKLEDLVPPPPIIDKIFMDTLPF

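Human Bcl-B (Bcl-2-like protein 10) as a GST fusion is mixed with a fluorescein-tagged TR3 peptide; fluorescence polarization is read after 10 minutes at room temperature. Each compound was tested once at 3.75 mg/L. The value is percent displacement of the tracer peptide, where 0% is Bcl-B with tracer and DMSO and 100% is tracer without Bcl-B; higher means stronger displacement.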

Values are in %. Only part of the assay is listed here, not a random draw.

For O=C1CC2c3ccccc3C1C1C(=O)N(CC34CC5CC(CC(C5)C3)C4)C(=O)C21 (centres undefined) the result was displacement -6.4%.
For COc1cccc(C2=NN(C(=O)c3cccc(Br)c3)C(O)(C(F)(F)F)C2)c1 (centres undefined) the result was displacement 4%.
For Cc1cc(C)nc(/N=C(/NC(=O)c2ccccc2)Nc2cccc(C(F)(F)F)c2)n1 the result was displacement -8.2%.
For NC(=O)NC(c1ccccc1)c1cccnc1 (centres undefined) the result was displacement 5.7%.
For CC(C)(C)c1ccc(OCC(=O)Nc2nccs2)cc1 the result was displacement -2.2%.
For COc1ccc(CC(=O)NCC2(c3ccccc3)CCCC2)cc1 the result was displacement -9.7%.
For O=C(c1ccc(S(=O)(=O)N2CCOCC2)cc1)N1CCN(c2ccccc2)CC1 the result was displacement 9.9%.
For CCOc1ccc(/C=C/C(=O)NC(c2ccccc2)c2ccccc2)cc1OC the result was displacement 11%.
For N/C(Cc1ccc(Cl)cc1)=N\OC(=O)CCc1ccccc1 the result was displacement -11.5%.
For CCSc1nnc2c(n1)OC(c1ccc(O)c(O)c1)Nc1ccccc1-2 (centres undefined) the result was displacement -3%.
For COc1ccc(/C=C/C(=O)Nc2ccc(I)cc2Cl)cc1 the result was displacement -7.2%.
For CC(=O)CCN(CCC(C)=O)CC1COc2ccccc2O1 (centres undefined) the result was displacement -7.3%.
For CCOC(=O)c1c(NC(=O)COc2ccc(Cl)cc2)sc(C(=O)Nc2ccccc2F)c1C the result was displacement -10.2%.
For O=C(Nc1ccccc1O)c1cccs1 the result was displacement 2.1%.
For Cc1cc(OCC(=O)Nc2cccc(-c3nc4ncccc4o3)c2C)cc(C)c1Cl the result was displacement 16.5%.
For COc1cccc(NC(=O)COc2ccc(-c3ccccc3)cc2)c1 the result was displacement -3.8%.
For O=C(c1ccc(F)cc1)N1CCN(Cc2cccc(Oc3ccccc3)c2)CC1 the result was displacement -1.6%.
For COc1ccc(OCCCOc2cccc(C)c2)cc1 the result was displacement -8%.
For CC(C)Oc1ccc(CCc2n[nH]c(=S)n2-c2ccccc2)cc1 the result was displacement -6.5%.
For Cc1[nH]oc(=O)c1N=Nc1ccccc1C(F)(F)F the result was displacement -1.9%.
For COc1ccc(C(=O)/C=C/Nc2ccc(Cl)c([N+](=O)[O-])c2)cc1 the result was displacement 12.9%.
For Nc1n[nH]c(N)c1N=Nc1ccc(F)cc1 the result was displacement -9.1%.
For Cc1cc(Br)ccc1N1C(=O)/C(=C/c2ccc(F)cc2)C(=O)NC1=S the result was displacement 7.2%.
For CC(C)=CCC/C(C)=C/C1OCC(C)O1 (centres undefined) the result was displacement -1.7%.
For Cn1c(O)c(C=NC2CCCC2)c(=O)n(C)c1=O the result was displacement 5.5%.
For N#Cc1c2n(c3c(-c4ccccc4)ncnc13)CCC2 the result was displacement 7.2%.
For COCCN1C(=O)/C(=C/c2ccc(F)cc2)SC1=S the result was displacement -3.9%.
For O=C(COc1ccc(Cl)cc1Br)N/N=C/c1cccc(OC(=O)c2ccco2)c1 the result was displacement 12.4%.
For O=C(N/N=C/c1ccccn1)/C(=C\c1ccc2c(c1)OCO2)NC(=O)c1ccccc1 the result was displacement -24.4%.
For O=C(Nc1ccc2oc(-c3ccc(F)cc3)nc2c1)c1ccc([N+](=O)[O-])cc1Cl the result was displacement 10.5%.
For COc1cc(NC(=O)CSCc2ccc(Cl)cc2Cl)c(C(=O)O)cc1OC the result was displacement -1.6%.
For COc1cccc(C(=O)N/N=C(/C)c2cccc(NC(=O)c3ccc(Cl)cc3)c2)c1 the result was displacement -4.4%.
For CC1=C(C(=O)OCCc2ccccc2)C(c2ccccc2F)C2=C(CC(C)(C)CC2=O)N1 (centres undefined) the result was displacement -5.8%.
For CCOc1cc(/C=C2/C(=O)NC(=O)N(C)C2=O)cc(I)c1O the result was displacement -5.5%.
For Cc1ccc(CNC(=O)C(=O)NCc2ccc3c(c2)OCO3)cc1 the result was displacement 2.8%.
For Cc1ccc2cc(C)c(N3CCC(C)CC3)nc2c1 the result was displacement 5.7%.
For Oc1ccccc1-c1cc(C(F)(F)F)nc(-c2ccccc2)n1 the result was displacement 8.5%.
For CC(C)C(NC(=O)OCc1ccccc1)C(=O)NCC(=O)OC(C)(C)C (centres undefined) the result was displacement 12.9%.
For O=C(COc1ccccc1[N+](=O)[O-])Nc1cccc(-c2nc3ccccc3o2)c1 the result was displacement -4.5%.
For Cc1cccc(NC(=O)CSc2nnnn2-c2ccccc2)c1C the result was displacement -9.2%.
For Cn1/c(=N/N=C/C=C/c2ccco2)sc2ccccc21 the result was displacement -5.3%.
For N#CN=C1CCCN1C(=O)c1ccccc1 the result was displacement 7.8%.
For CCc1ccc(NC(=O)C2COc3ccccc3O2)cc1 (centres undefined) the result was displacement -11.7%.
For COc1ccc(C(=O)/C=C/Nc2cccc(C(F)(F)F)c2)cc1 the result was displacement 12.4%.
For Cc1ccc(NC(=O)CN(c2ccc(Cl)cc2)S(C)(=O)=O)c(C)c1 the result was displacement 16.1%.

Some entries from above, unchanged:

Compound,displacement (%)
CC1=C(C(=O)OCCc2ccccc2)C(c2ccccc2F)C2=C(CC(C)(C)CC2=O)N1 (centres undefined),-5.8
Oc1ccccc1-c1cc(C(F)(F)F)nc(-c2ccccc2)n1,8.5
O=C(Nc1ccc2oc(-c3ccc(F)cc3)nc2c1)c1ccc([N+](=O)[O-])cc1Cl,10.5
O=C(COc1ccccc1[N+](=O)[O-])Nc1cccc(-c2nc3ccccc3o2)c1,-4.5

Source: PubChem BioAssay AID1240 (Sanford-Burnham Center for Chemical Genomics, 2008).